Measurements as given in PubChem BioAssay AID1347423 (Functional Genomics Laboratory (NCATS/FGL), 2020).
Screen size: about 52,000 sequences; about 210 (0.4%) were called active.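 The calls were made as follows: active = gene whose silencing raises cell survival under the drug, median off-target-corrected z-score across its silencing RNAs 2 or more; inactive = the rest.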 This is one part of the list.

Test: Resistance to Poly (ADP-Ribose) Polymerase inhibitor: Gene Identification via Genome-wide siRNA Screen
Settings: mouse BRCA2 R2336H ES cells, olaparib, CellTiter-Glo viability; stronger effect = higher value
How it was run: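 Mouse BRCA2 R2336H ES cells were reverse-transfected with siRNA (20 nM final), treated at 48 h with 500 nM olaparib, and read by CellTiter-Glo after 72 h. Scores: MAD-based z per siRNA, median per gene, seed off-target correction.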

Sequence	z-score
GGUACCUUUGCUACAUAAATT against D5Ertd577e	inactive: -2.08
GGAUCAAGUCCAAUCUAAATT against Cdh5	inactive: 0.388
GCAUGUGCUCCUUUUGUCGTT against C2a	inactive: 0.664
CCUUCAUGUGCAAGGUUGUTT against Ccr9	inactive: 1.34
GGUAUAUUCGGAAACCUAUTT against Abi1	inactive: -0.262
CCAAACACGACGUGAAGGUTT against D7Wsu128e	inactive: -0.165
GGUCUGGAUCUUGUGACCUTT against Tcstv1	inactive: -0.126
GCUUUCUUUAUAUUGACUGTT against Olfr692	inactive: -0.648
GGCAUGGACCAAAUAAAUATT against Snap23	inactive: -1.8
GGAUGCAACUAAAAUCAGCTT against 2900093B09Rik	inactive: 0.383
GGGACUAAUGUUUUGCCUATT against Krt1-16	inactive: -1.46
GGAGACUGCUAUAUUGGCUTT against 1700092C17Rik	inactive: 1.22
GGACCUCUUCAAUUGGACATT against Fut4	inactive: 0.776
GCCUAAGCGAAAGUCUCUCTT against 5133400D11Rik	inactive: 0.878
GCUGAUGCGGAGAUUUUGGTT against Prkrir	inactive: 1.67
GGAGUUGAAACUGAAUACATT against Pramel7	inactive: 0.898
CGAUGUUAUCAGUUUCAUATT against Sema3d	inactive: 1.09
GGAGCUUAUCAACUACUAUTT against Cltc	inactive: -1.9
GGAUGGAUCAAUUCAACCATT against 3200001F09Rik	inactive: 0.351
GGUUUCAUAAAUUCAGUGGTT against 0610010K06Rik	inactive: -0.366
GGCAAUAACAUUCGGUAUUTT against Snrpd1	inactive: -0.222
CCUCCCUAAGGUUAUAGACTT against BC016076	inactive: 0.467
GGUGGCUAUUGUCUUCAAGTT against Ppp2r4	inactive: 0.609
GGAGCAUCCUUCAACUUCUTT against A230020G22Rik	inactive: 0.915
GGAUGCUGAUUGAAUUCUATT against Slc16a9	inactive: -0.513
GGCAAGAAAGGACCAAUGGTT against Cln8	inactive: -2.08

Sequence	z-score
CCUUCUCAUAGUGAAAGUATT against Zfp95	inactive: 1.12
GGAUGCUAAAAAACCAAUGTT against Ndufs1	inactive: 1.01
GGUCGAACGAUUCUGCUGUTT against Slfn5	inactive: -0.209
GGCCAAGUUCUACAAUGACTT against Ptp4a3	inactive: -0.421
CGUGUUCAGCGUAGAAACUTT against Ttll1	inactive: -1.01
CGAAUGCUUGGAGAACAAUTT against Scube2	inactive: -0.0817
GGUCUCAAAUCACUAGAGUTT against Lum	inactive: 0.16
GGAGCGUGUGGAAGAAAAATT against Nedd8	inactive: -3.07
GGAAAACUAGUGUUGCUAUTT against Ptbp2	inactive: -0.614
GGUAGUUGGGACGAUCAUATT against 3110070M22Rik	inactive: -1.48
GGGAGUUAAACUUCUCUGCTT against Tlr13	inactive: -1.15
GGAGAUGACAGAUGACCUUTT against Glyat	inactive: 0.023
GGUAUCCUGAUUGUUGAGUTT against 4930417G10Rik	inactive: 0.971
GCCAAAUCUGCGUGAAUUATT against Lrp8	inactive: -0.945
GGCUCAAGUUACUUGCUAUTT against Fras1	inactive: 0.402
GCGACCUUAGACAUUUGCATT against Prkrip1	inactive: 0.888
GGAAAAUAAGCUAAGGAAGTT against Peg12	inactive: 0.226
GGCUAAACCUACAAUAUGUTT against Tnrc9	inactive: -0.181
GCCUGUUUACGGUUUUUCUTT against Prkab2	inactive: 0.919
CCUAUCUUUACCACAUAGATT against 9030624J02Rik	inactive: -0.939
GGAGAGGUGGUAUUGUUGGTT against Olfr1297	inactive: 0.686
GGUCUGAUACCUCAUUCCATT against Il22ra2	inactive: 0.26
GGCUGGUCAAAAUUUGGAATT against Cdca2	inactive: 0.406
GCCUUUGCACAGUUUGGACTT against BC002059	inactive: -0.0138
CCCUGACAAUCUUUAUUUCTT against Olfr883	inactive: 0.676
GGAUGGACAUCCAAGCAGGTT against Fabp9	inactive: -0.506

Quoted from the listing for reference:
Sequence	z-score
GGUAUCCUGAUUGUUGAGUTT against 4930417G10Rik	inactive: 0.971
GCCAAAUCUGCGUGAAUUATT against Lrp8	inactive: -0.945
